The record followed here is the supplement of paper PMC5836539.

The chains behind the UniProt entries cited, without tags or fusion partners. Where a name states a change or a piece, a line headed by the entry shows the natural chain unless it says otherwise.
UniProt P46060: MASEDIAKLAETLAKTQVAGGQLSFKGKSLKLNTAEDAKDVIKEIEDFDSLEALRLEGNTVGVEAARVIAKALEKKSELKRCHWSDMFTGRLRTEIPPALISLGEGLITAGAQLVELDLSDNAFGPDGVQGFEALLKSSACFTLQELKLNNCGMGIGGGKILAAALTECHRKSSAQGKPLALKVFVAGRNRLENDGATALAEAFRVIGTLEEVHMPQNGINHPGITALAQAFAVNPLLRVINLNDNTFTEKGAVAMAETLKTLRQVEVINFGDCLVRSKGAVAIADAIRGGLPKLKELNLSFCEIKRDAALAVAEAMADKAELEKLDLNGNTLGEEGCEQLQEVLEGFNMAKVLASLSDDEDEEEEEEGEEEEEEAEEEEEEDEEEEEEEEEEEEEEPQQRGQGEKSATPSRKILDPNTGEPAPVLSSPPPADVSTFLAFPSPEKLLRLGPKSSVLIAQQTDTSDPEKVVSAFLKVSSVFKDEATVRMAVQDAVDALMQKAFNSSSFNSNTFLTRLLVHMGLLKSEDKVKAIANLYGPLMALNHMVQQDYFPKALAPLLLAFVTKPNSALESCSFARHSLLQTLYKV
UniProt Q00688: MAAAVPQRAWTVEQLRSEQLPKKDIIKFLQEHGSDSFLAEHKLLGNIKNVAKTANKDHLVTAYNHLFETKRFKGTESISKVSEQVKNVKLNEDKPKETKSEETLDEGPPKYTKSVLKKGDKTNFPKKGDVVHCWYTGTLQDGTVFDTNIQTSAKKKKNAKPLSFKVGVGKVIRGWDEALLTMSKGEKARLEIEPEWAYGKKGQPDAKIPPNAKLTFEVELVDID
UniProt Q15139: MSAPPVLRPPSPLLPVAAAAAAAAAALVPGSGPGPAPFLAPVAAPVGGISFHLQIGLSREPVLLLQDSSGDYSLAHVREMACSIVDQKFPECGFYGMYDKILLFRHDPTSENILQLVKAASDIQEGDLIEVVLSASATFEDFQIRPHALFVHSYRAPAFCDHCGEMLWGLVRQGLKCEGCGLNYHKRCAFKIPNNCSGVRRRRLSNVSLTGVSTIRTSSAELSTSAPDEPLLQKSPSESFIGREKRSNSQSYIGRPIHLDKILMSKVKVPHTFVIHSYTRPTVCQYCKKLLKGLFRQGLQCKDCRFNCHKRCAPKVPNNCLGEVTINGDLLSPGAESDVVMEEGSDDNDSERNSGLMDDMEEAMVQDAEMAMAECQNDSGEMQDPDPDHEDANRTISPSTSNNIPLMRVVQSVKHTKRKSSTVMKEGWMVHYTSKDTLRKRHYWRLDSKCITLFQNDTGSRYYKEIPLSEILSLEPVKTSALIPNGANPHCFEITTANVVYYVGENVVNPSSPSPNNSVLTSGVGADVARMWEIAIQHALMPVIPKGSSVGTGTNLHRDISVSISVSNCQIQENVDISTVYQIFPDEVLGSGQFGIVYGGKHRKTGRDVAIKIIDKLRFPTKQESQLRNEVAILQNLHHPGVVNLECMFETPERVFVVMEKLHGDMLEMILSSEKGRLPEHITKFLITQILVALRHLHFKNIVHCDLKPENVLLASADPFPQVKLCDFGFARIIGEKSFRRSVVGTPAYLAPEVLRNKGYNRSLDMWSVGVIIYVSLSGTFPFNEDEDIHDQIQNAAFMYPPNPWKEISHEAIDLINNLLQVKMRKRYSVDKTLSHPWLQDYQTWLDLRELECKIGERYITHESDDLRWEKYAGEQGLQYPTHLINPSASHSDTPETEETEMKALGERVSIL
UniProt Q5SW79: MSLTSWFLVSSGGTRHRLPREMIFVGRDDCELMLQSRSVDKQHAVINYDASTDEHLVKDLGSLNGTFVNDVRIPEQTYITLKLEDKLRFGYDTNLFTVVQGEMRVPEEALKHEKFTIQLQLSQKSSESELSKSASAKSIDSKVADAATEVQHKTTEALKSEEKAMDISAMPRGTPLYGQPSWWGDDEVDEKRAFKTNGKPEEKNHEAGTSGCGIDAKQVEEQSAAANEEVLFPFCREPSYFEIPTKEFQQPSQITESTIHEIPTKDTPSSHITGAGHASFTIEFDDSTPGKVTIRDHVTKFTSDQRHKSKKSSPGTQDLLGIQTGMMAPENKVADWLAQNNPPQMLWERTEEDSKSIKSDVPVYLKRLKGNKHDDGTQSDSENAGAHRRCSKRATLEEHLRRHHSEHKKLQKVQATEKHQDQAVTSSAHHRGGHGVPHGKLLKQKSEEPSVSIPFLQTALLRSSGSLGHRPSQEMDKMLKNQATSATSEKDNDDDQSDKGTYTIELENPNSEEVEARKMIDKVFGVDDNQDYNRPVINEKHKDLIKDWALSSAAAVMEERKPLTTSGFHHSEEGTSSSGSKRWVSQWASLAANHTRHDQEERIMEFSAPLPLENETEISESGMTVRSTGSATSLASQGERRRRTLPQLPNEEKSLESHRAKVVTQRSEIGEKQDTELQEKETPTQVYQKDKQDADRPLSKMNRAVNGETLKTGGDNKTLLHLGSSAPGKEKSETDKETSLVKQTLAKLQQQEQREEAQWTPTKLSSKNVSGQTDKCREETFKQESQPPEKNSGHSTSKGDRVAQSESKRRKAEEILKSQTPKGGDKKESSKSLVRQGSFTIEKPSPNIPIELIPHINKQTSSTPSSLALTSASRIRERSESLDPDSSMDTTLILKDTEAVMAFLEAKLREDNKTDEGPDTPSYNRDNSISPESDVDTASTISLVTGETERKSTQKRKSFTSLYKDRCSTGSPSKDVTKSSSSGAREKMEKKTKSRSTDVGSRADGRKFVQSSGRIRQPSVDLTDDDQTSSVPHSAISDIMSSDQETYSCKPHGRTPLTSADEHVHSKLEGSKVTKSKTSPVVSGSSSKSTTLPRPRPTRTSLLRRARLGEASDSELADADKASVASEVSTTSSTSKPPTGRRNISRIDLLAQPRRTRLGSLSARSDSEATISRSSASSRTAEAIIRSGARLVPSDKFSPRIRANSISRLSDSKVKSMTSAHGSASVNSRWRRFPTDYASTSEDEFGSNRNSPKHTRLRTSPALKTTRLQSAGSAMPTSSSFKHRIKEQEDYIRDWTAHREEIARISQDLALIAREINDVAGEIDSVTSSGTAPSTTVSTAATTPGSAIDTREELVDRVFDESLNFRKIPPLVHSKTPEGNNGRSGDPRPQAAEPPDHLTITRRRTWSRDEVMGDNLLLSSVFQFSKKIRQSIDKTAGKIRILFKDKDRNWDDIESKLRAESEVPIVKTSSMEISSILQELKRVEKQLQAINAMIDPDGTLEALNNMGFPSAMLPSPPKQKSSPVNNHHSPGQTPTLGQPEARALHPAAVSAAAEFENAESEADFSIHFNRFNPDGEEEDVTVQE
UniProt P46821: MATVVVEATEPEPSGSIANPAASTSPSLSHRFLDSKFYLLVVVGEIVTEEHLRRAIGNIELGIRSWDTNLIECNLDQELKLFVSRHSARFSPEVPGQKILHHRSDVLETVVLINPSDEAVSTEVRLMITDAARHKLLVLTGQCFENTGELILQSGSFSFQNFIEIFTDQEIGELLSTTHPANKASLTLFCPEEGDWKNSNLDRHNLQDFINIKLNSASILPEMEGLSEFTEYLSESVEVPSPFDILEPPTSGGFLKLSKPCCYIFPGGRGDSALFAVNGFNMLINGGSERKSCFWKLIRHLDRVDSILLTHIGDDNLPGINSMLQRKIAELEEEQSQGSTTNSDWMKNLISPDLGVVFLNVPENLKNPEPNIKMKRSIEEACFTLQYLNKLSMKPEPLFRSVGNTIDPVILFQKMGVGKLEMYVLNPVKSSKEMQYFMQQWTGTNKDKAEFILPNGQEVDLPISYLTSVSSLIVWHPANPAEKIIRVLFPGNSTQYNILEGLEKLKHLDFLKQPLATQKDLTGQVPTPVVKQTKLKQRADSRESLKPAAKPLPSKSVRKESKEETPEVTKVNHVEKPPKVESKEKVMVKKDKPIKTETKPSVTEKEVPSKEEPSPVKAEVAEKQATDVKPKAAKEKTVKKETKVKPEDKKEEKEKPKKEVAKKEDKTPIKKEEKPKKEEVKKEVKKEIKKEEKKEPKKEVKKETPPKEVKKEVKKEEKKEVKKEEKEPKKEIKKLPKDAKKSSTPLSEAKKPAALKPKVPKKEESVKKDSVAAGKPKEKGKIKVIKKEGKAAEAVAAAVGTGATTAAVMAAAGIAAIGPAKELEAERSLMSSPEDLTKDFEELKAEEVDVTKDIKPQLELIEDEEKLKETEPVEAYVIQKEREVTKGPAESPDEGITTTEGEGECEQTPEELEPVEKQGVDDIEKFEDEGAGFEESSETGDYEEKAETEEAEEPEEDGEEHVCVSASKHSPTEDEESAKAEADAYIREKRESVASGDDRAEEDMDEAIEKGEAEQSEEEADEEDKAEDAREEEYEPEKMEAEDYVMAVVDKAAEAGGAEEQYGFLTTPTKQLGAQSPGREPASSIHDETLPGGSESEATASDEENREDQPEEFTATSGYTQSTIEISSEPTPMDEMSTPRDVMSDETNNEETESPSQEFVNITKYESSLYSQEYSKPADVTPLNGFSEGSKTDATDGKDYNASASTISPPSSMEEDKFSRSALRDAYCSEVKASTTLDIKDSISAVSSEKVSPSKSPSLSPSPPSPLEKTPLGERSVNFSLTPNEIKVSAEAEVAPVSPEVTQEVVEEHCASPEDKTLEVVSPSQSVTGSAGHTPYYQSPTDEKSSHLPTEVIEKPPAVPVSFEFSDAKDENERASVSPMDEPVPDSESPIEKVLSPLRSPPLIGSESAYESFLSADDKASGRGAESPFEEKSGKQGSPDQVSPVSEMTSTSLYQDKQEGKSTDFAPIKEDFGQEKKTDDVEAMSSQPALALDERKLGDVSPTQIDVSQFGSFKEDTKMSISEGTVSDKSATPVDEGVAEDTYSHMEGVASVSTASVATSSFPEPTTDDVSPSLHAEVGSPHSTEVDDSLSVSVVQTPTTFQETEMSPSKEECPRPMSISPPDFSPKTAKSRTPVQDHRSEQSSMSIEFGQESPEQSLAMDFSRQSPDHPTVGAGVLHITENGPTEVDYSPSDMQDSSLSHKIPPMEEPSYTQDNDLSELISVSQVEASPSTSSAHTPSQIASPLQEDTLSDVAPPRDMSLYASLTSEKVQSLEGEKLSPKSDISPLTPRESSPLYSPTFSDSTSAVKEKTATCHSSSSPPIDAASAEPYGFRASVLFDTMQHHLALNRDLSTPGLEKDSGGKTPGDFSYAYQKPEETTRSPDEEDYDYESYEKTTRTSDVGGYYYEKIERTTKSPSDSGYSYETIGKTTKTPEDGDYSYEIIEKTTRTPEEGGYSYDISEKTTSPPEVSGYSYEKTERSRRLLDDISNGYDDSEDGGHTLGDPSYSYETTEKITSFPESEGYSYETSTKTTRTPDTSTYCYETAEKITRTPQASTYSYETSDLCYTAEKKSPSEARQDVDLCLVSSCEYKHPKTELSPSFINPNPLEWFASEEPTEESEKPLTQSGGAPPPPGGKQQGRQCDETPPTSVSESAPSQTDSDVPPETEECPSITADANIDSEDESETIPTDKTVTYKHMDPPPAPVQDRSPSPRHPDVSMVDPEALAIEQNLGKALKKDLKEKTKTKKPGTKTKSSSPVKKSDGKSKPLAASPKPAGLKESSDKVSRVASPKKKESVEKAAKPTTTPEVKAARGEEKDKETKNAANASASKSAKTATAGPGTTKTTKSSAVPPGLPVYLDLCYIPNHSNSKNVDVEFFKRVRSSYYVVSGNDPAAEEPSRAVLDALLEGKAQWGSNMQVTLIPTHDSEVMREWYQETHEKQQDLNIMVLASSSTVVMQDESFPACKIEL
UniProt P22059, whole entry, looked up: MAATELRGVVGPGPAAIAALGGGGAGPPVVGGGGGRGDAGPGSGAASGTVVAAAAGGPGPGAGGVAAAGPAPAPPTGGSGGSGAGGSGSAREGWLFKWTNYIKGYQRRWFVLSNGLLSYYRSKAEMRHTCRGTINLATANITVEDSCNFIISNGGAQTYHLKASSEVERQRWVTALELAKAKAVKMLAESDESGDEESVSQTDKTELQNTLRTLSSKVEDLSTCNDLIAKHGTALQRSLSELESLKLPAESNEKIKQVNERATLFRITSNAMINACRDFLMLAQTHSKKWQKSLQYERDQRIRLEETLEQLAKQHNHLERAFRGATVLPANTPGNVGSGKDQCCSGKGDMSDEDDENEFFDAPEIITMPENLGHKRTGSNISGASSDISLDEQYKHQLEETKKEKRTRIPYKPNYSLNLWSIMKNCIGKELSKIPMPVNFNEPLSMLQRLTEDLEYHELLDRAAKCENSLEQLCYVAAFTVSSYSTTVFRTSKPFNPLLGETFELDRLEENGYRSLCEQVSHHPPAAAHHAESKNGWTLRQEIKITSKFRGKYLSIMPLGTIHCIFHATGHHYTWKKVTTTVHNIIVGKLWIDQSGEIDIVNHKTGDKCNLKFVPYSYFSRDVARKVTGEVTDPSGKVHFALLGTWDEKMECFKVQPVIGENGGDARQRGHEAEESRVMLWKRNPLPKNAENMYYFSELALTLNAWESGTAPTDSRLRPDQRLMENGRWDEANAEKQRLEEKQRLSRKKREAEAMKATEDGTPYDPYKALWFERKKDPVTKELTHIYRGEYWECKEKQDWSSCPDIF

± gives the standard deviation of the averaged measurements. Repeats in this data set agree poorly, so a single value says little.

Compound in this assay: CC[C@@H](C)Nc1cc(C(=O)N[C@H]2C[C@H]3CC[C@@H](C2)N3c2ccc(C(=O)C3CC3)cn2)c(C)cc1C(N)=O [XL888]
Kind of assay: phosphopeptide melting temperature shift (XL888 minus DMSO); higher = stabilised by drug treatment. The conditions noted are these: 100 µM; treatment time 2 h; layout: intact cells; SK-Mel 28. The procedure: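 Phospho-TPP in intact SK-Mel 28 cells treated with 100 uM XL888 or DMSO for 2 h, heated at 10 temperatures (37-67 C) for 3 min, soluble fraction TMT10plex-labelled and TiO2 phospho-enriched. Melting curves were fitted per phosphopeptide; the value is the melting point difference (drug minus vehicle) in each of two biological replicates.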
“RANGAP1 phosphosite_442 (phosphosite position: 442) (UniProt P46060)”: the “phosphopeptide melting temperature shift” value is -0.297 ± 0.15 °C.

On to “UniProt P13807-2_phosphosite_577 (phosphosite position: 577)”, for which the “phosphopeptide melting temperature shift” value was -1.43 ± 0.44 °C.

For the target “ARFGEF2 phosphosite_1514 (phosphosite position: 1514) (UniProt Q9Y6D5)”, the “phosphopeptide melting temperature shift” value was determined as 0.528 ± 0.68 °C.

On to “WWTR1 phosphosite_65 (phosphosite position: 65) (UniProt Q9GZV5)”, for which the “phosphopeptide melting temperature shift” value was -0.486 °C.

Consider “RBM33 phosphosite_973 (phosphosite position: 973) (UniProt Q96EV2)”, for which the “phosphopeptide melting temperature shift” value is -3.46 °C.

For “LYST phosphosite_2264 (phosphosite position: 2264) (UniProt Q99698)”, the “phosphopeptide melting temperature shift” value was -0.5 °C.

Regarding “UniProt Q9BUK6-5_phosphosite_317 (phosphosite position: 317)”, the “phosphopeptide melting temperature shift” value is -0.419 °C.

Turning to “PRCC phosphosite_157 (phosphosite position: 157) (UniProt Q92733)”, the “phosphopeptide melting temperature shift” value was found to be 6.31 °C.

As for “UniProt O60716-24_phosphosite_129 (phosphosite position: 129)”, the “phosphopeptide melting temperature shift” value worked out at 0.087 °C.

As to “UniProt Q9NR30-2_phosphosite_53 (phosphosite position: 53)”, the “phosphopeptide melting temperature shift” value stood at 0.909 °C.

As to “TCP1 phosphosite_551 (phosphosite position: 551) (UniProt P17987)”, the “phosphopeptide melting temperature shift” value stood at 1.84 °C.

With “NUP160 phosphosite_1157 (phosphosite position: 1157) (UniProt Q12769)”, the “phosphopeptide melting temperature shift” value was determined as 0.979 ± 1 °C.

On to “FKBP3 phosphosite_36 (phosphosite position: 36) (UniProt Q00688)”, for which the “phosphopeptide melting temperature shift” value was found to be 0.436 ± 0.77 °C.

In the case of “UHRF1BP1L phosphosite_414 (phosphosite position: 414) (UniProt A0JNW5)”, the “phosphopeptide melting temperature shift” value was 0.152 °C.

For “UniProt Q9Y520-6_phosphosite_2105 (phosphosite position: 2105)”, the “phosphopeptide melting temperature shift” value was -0.157 ± 0.0046 °C.

As for “UniProt Q9UMZ2-4_phosphosite_776 (phosphosite position: 776)”, the “phosphopeptide melting temperature shift” value was 0.878 °C.

“IWS1 phosphosite_365 (phosphosite position: 365) (UniProt Q96ST2)”: the “phosphopeptide melting temperature shift” value was 0.407 ± 0.65 °C.

In the case of “UniProt Q15139_phosphosite_397 (phosphosite position: 397)”, the “phosphopeptide melting temperature shift” value was found to be 0.42 °C.

For “CPSF2 phosphosite_419 (phosphosite position: 419) (UniProt Q9P2I0)”, the “phosphopeptide melting temperature shift” value is 1.13 °C.

Consider “UniProt Q9NZH5-2_phosphosite_165 (phosphosite position: 165)”, for which the “phosphopeptide melting temperature shift” value worked out at 4.18 °C.

Turning to “CEP170 phosphosite_930 (phosphosite position: 930) (UniProt Q5SW79)”, the “phosphopeptide melting temperature shift” value is -1.71 °C.

In the case of “NUFIP2 phosphosite_629 (phosphosite position: 629) (UniProt Q7Z417)”, the “phosphopeptide melting temperature shift” value was 1.56 ± 0.61 °C.

Turning to “FGD4 phosphosite_702 (phosphosite position: 702) (UniProt Q96M96)”, the “phosphopeptide melting temperature shift” value was -0.182 ± 0.27 °C.

For the target “MAP1B phosphosite_1400 (phosphosite position: 1400) (UniProt P46821)”, the “phosphopeptide melting temperature shift” value was found to be 0.818 ± 0.87 °C.

Consider “ASAP1 phosphosite_839 (phosphosite position: 839) (UniProt Q9ULH1)”, for which the “phosphopeptide melting temperature shift” value worked out at 1.4 ± 1.9 °C.

On to “PLA2G4A phosphosite_435 (phosphosite position: 435) (UniProt P47712)”, for which the “phosphopeptide melting temperature shift” value worked out at 0.988 ± 0.33 °C.

For “OSBP phosphosite_385 (phosphosite position: 385) (UniProt P22059)”, the “phosphopeptide melting temperature shift” value was determined as 1.1 °C.
